Results are given in words; binding and its absence hold for the method and conditions named. Binding can be weak; no strength is given.

The target in experiment [1] is T1, malate dehydrogenase (MDH), denatured (UniProt P00346).
T1 sequence: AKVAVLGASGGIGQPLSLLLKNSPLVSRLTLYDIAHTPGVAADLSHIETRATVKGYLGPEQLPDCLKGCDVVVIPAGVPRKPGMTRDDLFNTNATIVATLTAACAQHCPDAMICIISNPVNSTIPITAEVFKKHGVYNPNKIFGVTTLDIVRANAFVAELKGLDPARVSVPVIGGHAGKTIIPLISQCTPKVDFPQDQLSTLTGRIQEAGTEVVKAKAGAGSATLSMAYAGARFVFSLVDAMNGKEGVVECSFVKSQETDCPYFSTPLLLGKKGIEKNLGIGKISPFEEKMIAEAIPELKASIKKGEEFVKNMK
Description: cross-linking; glutaraldehyde; ~60 µg proteins in 50 mM sodium phosphate pH 8, 100 mM NaCl with or without ATP and MgCl2 (2 mM each), 37 °C; SDS-PAGE; MDH denatured at 48 °C; both purified.

The target in experiment [2] is PFA0660w-S (219–386) (P. falciparum). Description: pull-down; 20 µg PFA0660w-S on Ni-NTA beads, saturated with 200 µg denatured MDH, then cholesterol 50-300 µM; bound fractions on SDS-PAGE; both purified.

On to “PFA0660w-C (81–386) (P. falciparum) (domain or fragment)”, for which the binding result in experiment [1] is listed as “binds”.

B1: malate dehydrogenase (MDH), denatured (enzyme, UniProt P00346 25-338)
chain: T1 sequence
With B1, in experiment [2], the binding result is “binds”.

These data come from paper PMC6389991.
